Laboratory results: PubChem BioAssay AID1224826 (NIAID, 2016)

Assay: 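Knock-downs that raise or lower Tnf reporter signal after endotoxin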 (primary screen)
Cells: RAW264.7 G9 macrophages from mouse bearing reporters for p65 (GFP) and the Tnf promoter (mCherry)
Knock-down reagent: siRNA pool against mouse genes, 100 nM
Duration: 16 h of LPS stimulation, after 2 days of siRNA transfection
Challenge: bacterial lipopolysaccharide (Salmonella minnesota R595), 10 ng/ml
Detection: 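Nuclear mCherry signal of the Tnf promoter reporter measured by imaging after background removal, scaled to each plate median and turned into robust z-scores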
Scale: Tnf reporter robust z-score: higher = stronger Tnf promoter reporter signal after LPS
Call rule: 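a well counts as active at a score of -1.3 or below (Tlr4 knock-down control median) or above 3 (raised signal); controls and wells holding fewer than 50 cells are excluded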
Calls: active = Tnf reporter clearly lowered or raised; inactive = no clear change in Tnf reporter
Shown is a random part of about 17,000 reagents. About 1,110 of all reagents (6.6%) count as active. 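Active means lowered or raised reporter signal; replicate intensities are raw and not normalised per plate.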 Further read-outs or replicates are left out here. No sequences are given here.

Pla2g1b (GeneID 18778) gave Tnf reporter robust z-score -0.32; fewer than 50 cells in well enough cells in well; inactive.
For Kcnu1 (GeneID 16532), the entry reads Tnf reporter robust z-score -0.3; fewer than 50 cells in well enough cells in well; inactive.
Depletion of Cct5 (GeneID 12465) gave: Tnf reporter robust z-score -0.35; fewer than 50 cells in well enough cells in well; inactive.
Cnot10 (GeneID 78893) gave Tnf reporter robust z-score -1.21; fewer than 50 cells in well enough cells in well; inactive.
With knock-down of Cldn18 (GeneID 56492), the screen gave Tnf reporter robust z-score -0.92; fewer than 50 cells in well enough cells in well; inactive.
Against Bard1 (GeneID 12021), the entry reads Tnf reporter robust z-score 0.4; fewer than 50 cells in well enough cells in well; inactive.
Pramel52-ps (GeneID 100554) gave Tnf reporter robust z-score -0.14; fewer than 50 cells in well enough cells in well; inactive.
Against Gbp6 (GeneID 100702), the entry reads Tnf reporter robust z-score 1.06; fewer than 50 cells in well enough cells in well; inactive.
With knock-down of Aoc3 (GeneID 11754), the record shows Tnf reporter robust z-score -0.86; fewer than 50 cells in well enough cells in well; inactive.
After knock-down of Nup98 (GeneID 269966), the screen gave fewer than 50 cells in well fewer than 50 cells per well; well left out of calls; inactive.
1700009J07Rik (GeneID 75188) scored Tnf reporter robust z-score 1.96; fewer than 50 cells in well enough cells in well; inactive.
Knock-down of Or51a10 (GeneID 258326) resulted in: Tnf reporter robust z-score 1.37; fewer than 50 cells in well enough cells in well; inactive.
Silencing of Slc5a4a (GeneID 64452) resulted in: fewer than 50 cells in well fewer than 50 cells per well; well left out of calls; inactive.
Silencing of Cstf1 (GeneID 67337) gave: Tnf reporter robust z-score 1.3; fewer than 50 cells in well enough cells in well; inactive.
Cmbl (GeneID 69574) scored Tnf reporter robust z-score 0.74; fewer than 50 cells in well enough cells in well; inactive.
For Bud23 (GeneID 66138), the values are Tnf reporter robust z-score 2.02; fewer than 50 cells in well enough cells in well; inactive.
For Or5d40 (GeneID 258524), the entry reads Tnf reporter robust z-score 0.23; fewer than 50 cells in well enough cells in well; inactive.

Part of the list above in another layout:
Nup98 (GeneID 269966)
- fewer than 50 cells in well: fewer than 50 cells per well; well left out of calls
- call: inactive

1700009J07Rik (GeneID 75188)
- Tnf reporter robust z-score: 1.96
- fewer than 50 cells in well: enough cells in well
- call: inactive

Or51a10 (GeneID 258326)
- Tnf reporter robust z-score: 1.37
- fewer than 50 cells in well: enough cells in well
- call: inactive

Slc5a4a (GeneID 64452)
- fewer than 50 cells in well: fewer than 50 cells per well; well left out of calls
- call: inactive

Further results follow.
Otx1 (GeneID 18423) gave Tnf reporter robust z-score -1.3; fewer than 50 cells in well enough cells in well; active.
Neu1 (GeneID 18010) showed Tnf reporter robust z-score -1.51; fewer than 50 cells in well enough cells in well; active.
With knock-down of Xlr3a (GeneID 22445) the results were Tnf reporter robust z-score -1.19; fewer than 50 cells in well enough cells in well; inactive.
Zbtb7b (GeneID 22724) gave Tnf reporter robust z-score -0.16; fewer than 50 cells in well enough cells in well; inactive.
After knock-down of Rbm15b (GeneID 109095), the screen gave fewer than 50 cells in well fewer than 50 cells per well; well left out of calls; inactive.
With knock-down of Or5p1 (GeneID 258731), the record shows fewer than 50 cells in well fewer than 50 cells per well; well left out of calls; inactive.
Depletion of Xab2 (GeneID 67439) resulted in: Tnf reporter robust z-score -0.49; fewer than 50 cells in well enough cells in well; inactive.
Defa6 (GeneID 13240) showed Tnf reporter robust z-score 0.88; fewer than 50 cells in well enough cells in well; inactive.
With knock-down of Klrc1 (GeneID 16641) the results were Tnf reporter robust z-score 0.63; fewer than 50 cells in well enough cells in well; inactive.
After knock-down of Thrsp (GeneID 21835) the results were Tnf reporter robust z-score -0.48; fewer than 50 cells in well enough cells in well; inactive.
